In this experiment the test system is primary human hepatic stellate cells (donor 1). The experiment in a line: percent Bodipy-positive cells; higher = more lipid droplet accumulation. To be noted: 48 h.
Where [1] appears, read: library stock concentration: 3.33 mM.
[2] abbreviates: library stock concentration: 10 mM.
Where [3] appears, read: library stock concentration: 80 uM.
[4] abbreviates: library stock concentration: 400 uM.
Where [5] appears, read: library stock concentration: 2 mM.

We go through 38 compounds from the supplement of paper PMC9135407.

Where “and” joins values, the source holds several entries; their conditions need not be identical. Equal values may be shown once. Where a name gives a salt, the structure may show the parent alone. ± gives the standard deviation of the averaged measurements. This is one part of the list. Plates or batches differ in their baseline, so values are only roughly comparable.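 Culture-activated primary human stellate myofibroblasts, where regained lipid droplets signal inactivation. Value: share of Hoechst-counted cells above a per-plate Bodipy cutoff, in duplicate wells, with DMSO negative and nortriptyline positive controls on each plate. Hits: a control-normalized score above the plate's top-tenth-percentile nortriptyline wells, or one of a plate's three best wells. Final well concentrations are not given.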

On to `CC(C)(C)c1ccc(-c2nc3ccccc3[nH]2)cc1`, for which the “percent Bodipy-positive cells” value is, setting by setting: under setting [1], 34.8 ± 9.9%; under setting [2], 45.5 ± 10%. In the case of `Cc1nc(-c2cn3c(n2)-c2ccc(-c4cnn(C(C)(C)C(N)=O)c4)cc2OCC3)n(C(C)C)n1` [Taselisib], the “percent Bodipy-positive cells” value under setting [3] was 12.9 ± 1.4%, the “percent Bodipy-positive cells” value under setting [4] stood at 8.6 ± 0.31%, the “percent Bodipy-positive cells” value under setting [5] amounted to 11.5 ± 0.14% and the “percent Bodipy-positive cells” value under setting [2] worked out at 10.3 ± 0.86%. Consider `Cc1nc(N)ncc1-c1nc(N2CCOCC2)c2sc(C(C)(C)O)cc2n1`, for which the “percent Bodipy-positive cells” value is, setting by setting: under setting [4], 9.58 ± 1.2%; under setting [5], 18.5 ± 0.69%; under setting [2], 10.2 ± 2.1%. Regarding `O=C(/C=C/c1ccc(CN(CCO)CCc2c[nH]c3ccccc23)cc1)NO` [LAQ824 (Dacinostat)], the “percent Bodipy-positive cells” value under setting [1] came out at 72.4 ± 6.8% and the “percent Bodipy-positive cells” value under setting [2] was found to be 81.9 ± 0.18%. In the case of `O=c1cc[nH]c(=S)[nH]1` [2-thiouracil], the “percent Bodipy-positive cells” value under setting [2] stood at 38 ± 7.3%. On to `O=c1cc[nH]c(=S)[nH]1` [2-Thiouracil], for which the “percent Bodipy-positive cells” value is, setting by setting: under setting [1], 7.63 ± 0.089%; under setting [2], 17.7 ± 2.9%. Take `CCCCC/C=C\C\C=C/C=C/C=C/[C@@H](SC[C@H](N)C(=O)O)[C@@H](O)CCCC(=O)O` [Leukotriene E4]: the “percent Bodipy-positive cells” value (library stock concentration: 100 uM) was determined as 5.98 ± 3.9%.

Turning to `CC(C)CC(=O)N[C@H](C(=O)N[C@H](C(=O)N[C@@H](CC(C)C)[C@@H](O)CC(=O)N[C@@H](C)C(=O)N[C@@H](CC(C)C)[C@@H](O)CC(=O)O)C(C)C)C(C)C` [Pepstatin], under “library stock concentration: 7.3 mM”, the “percent Bodipy-positive cells” value worked out at 18.7 ± 3.1%.

With `CC(C)CC(=O)N[C@H](C(=O)N[C@H](C(=O)N[C@@H](CC(C)C)[C@@H](O)CC(=O)N[C@@H](C)C(=O)N[C@@H](CC(C)C)[C@@H](O)CC(=O)O)C(C)C)C(C)C` [Pepstatin a], for the setting “library stock concentration: 2.9 mM”, the “percent Bodipy-positive cells” value amounted to 1.74 ± 1.2%. Take `CC(C)CC(=O)N[C@H](C(=O)N[C@H](C(=O)N[C@@H](CC(C)C)[C@@H](O)CC(=O)N[C@@H](C)C(=O)N[C@@H](CC(C)C)[C@@H](O)CC(=O)O)C(C)C)C(C)C` [Pepstatin A]: the “percent Bodipy-positive cells” value was 20.6 ± 2.3%.

For the compound `O=S(=O)(NCCNC/C=C/c1ccc(Br)cc1)c1cccc2cnccc12`, the “percent Bodipy-positive cells” value under setting [2] stood at 92.3 ± 3.8%.

As to `CC(=O)OC1CC2CCC1(C)C2(C)C` (configuration not stated), under setting [2], the “percent Bodipy-positive cells” value was determined as 23.1 ± 5%. On to `Cc1cccc(C#Cc2ccccc2)n1` [MPEP hydrochloride], for which, under setting [2], the “percent Bodipy-positive cells” value was 11.49 ± 0.086%. The same measure, in the same setting: then `Cc1cccc(C#Cc2ccccc2)n1` [6-Methyl-2-(phenylethynyl)pyridine hydrochloride], with 34.55 ± 0.075%. On to `Cc1cccc(C#Cc2ccccc2)n1`, for which the “percent Bodipy-positive cells” value stood at 13.1 ± 8% under setting [1] and 11.1 ± 4.4% under setting [2].

As to `N[C@H](C(=O)O)c1cc(O)cc(O)c1` [(S)-3,5-Dihydroxyphenylglycine], the “percent Bodipy-positive cells” value under setting [2] is 34 ± 19%.

Regarding `N[C@H](C(=O)O)c1cc(O)cc(O)c1`, the “percent Bodipy-positive cells” value under setting [2] worked out at 6.54 ± 2%.

With `COC(=O)C1=C(C)NC(C)=C(C(=O)OCCSc2ccccc2)C1C` (configuration not stated), the “percent Bodipy-positive cells” value under setting [2] came to 13.51 ± 0.069% and the “percent Bodipy-positive cells” value (library stock concentration: 13.8 mM) stood at 32.7 ± 3.6%.

On to `C=C[C@@]1(C)C[C@@H](OC(=O)CS[C@@H]2C[C@H]3CC[C@@H](C2)N3C)[C@@]2(C)[C@@H]3C(=O)CC[C@@]3(CC[C@@H]2C)[C@@H](C)[C@@H]1O` [Retapamulin], for which the “percent Bodipy-positive cells” value under setting [2] amounted to 93.8 ± 2.2%.

Turning to `CN(C1CCc2c(c3ccccc3n2CC(=O)O)C1)S(=O)(=O)c1ccc(F)cc1` (configuration not stated), the “percent Bodipy-positive cells” value (library stock concentration: 1 mM) stood at 14.5 ± 0.19%. For `C[C@H](O)C(=O)Nc1c(I)c(C(=O)NC(CO)CO)c(I)c(C(=O)NC(CO)CO)c1I` [Iopamidol], the “percent Bodipy-positive cells” value turned out to be 6.89 ± 1.7%.

Take `CC1Cc2ccccc2N1NC(=O)c1ccc(Cl)c(S(N)(=O)=O)c1` (configuration not stated) [Indapamide]: the “percent Bodipy-positive cells” value amounted to 36.2 ± 15%. In addition, the “percent Bodipy-positive cells” value under setting [1] was 27 ± 21%. For the same compound, the “percent Bodipy-positive cells” value under setting [2] was 16.7% and 13.7%. On to `CC1Cc2ccccc2N1NC(=O)c1ccc(Cl)c(S(N)(=O)=O)c1` (configuration not stated), for which the “percent Bodipy-positive cells” value under setting [2] was 22.8 ± 5.8%. On the same count and under the same terms, to `CC(C)(C)[C@]1(O)CCN2C[C@H]3c4ccccc4CCc4cccc(c43)[C@@H]2C1` [(+)-Butaclamol hydrochloride] belongs 93.3 ± 5.9%. Consider `CC(C)(C)[C@]1(O)CCN2C[C@H]3c4ccccc4CCc4cccc(c43)[C@@H]2C1`, for which the “percent Bodipy-positive cells” value under setting [2] worked out at 80.5 ± 4.4%.

As for `C[C@H]1O[C@@H](O[C@H]2[C@@H](O)C[C@H](O[C@H]3[C@@H](O)C[C@H](O[C@H]4CC[C@]5(C)C6C[C@@H](O)[C@]7(C)[C@@H](C8=CC(=O)OC8)CC[C@]7(O)C6CC[C@@H]5C4)O[C@@H]3C)O[C@@H]2C)C[C@H](O)[C@@H]1O` (some centres not stated) [Digoxin], the “percent Bodipy-positive cells” value (library stock concentration: 2.6 mM) amounted to 71.1 ± 14%. Regarding `Nc1nc2[nH]c(=O)cnc2c(=O)[nH]1` [Isoxanthopterin], the “percent Bodipy-positive cells” value under setting [2] came out at 40.8 ± 11%.

On to `CCCS(=O)(=O)Nc1ccc(F)c(C(=O)c2c[nH]c3ncc(Cl)cc23)c1F`, for which, under setting [2], the “percent Bodipy-positive cells” value was 81.2 ± 1.2%. On the same count and under the same terms, then `FC(F)(Cl)C(F)(F)Cl`, with 23.2 ± 4.6%; and `COc1ccc(C2CC(c3c(O)cc(C)oc3=O)=NCCS2)c(OC)c1` (configuration not stated), with 21.2 ± 1.9%. In the case of `CCC(=O)c1c(O)cc(O)cc1O` [Flopropione], the “percent Bodipy-positive cells” value under setting [1] came to 8.07 ± 1.9%; the “percent Bodipy-positive cells” value under setting [2] was 25.3% and 16.9%.

`C=CC(=O)Nc1ccc2ncnc(Nc3cccc(Br)c3)c2c1`: the “percent Bodipy-positive cells” value reads like this: under setting [1], 16.8 ± 4.6%; under setting [2], 93.7 ± 1.5%. For `O=C(NCC(O)CO)c1c(I)c(C(=O)NCC(O)CO)c(I)c(N(CCO)C(=O)CO)c1I` (configuration not stated) [Ioversol], the “percent Bodipy-positive cells” value came out at 9.63 ± 1.9%.

In the case of `CO/N=C(\C(=O)N[C@@H]1C(=O)N2C(C(=O)O)=C(COC(N)=O)CS[C@H]12)c1ccco1` [Cefuroxime sodium], the “percent Bodipy-positive cells” value runs as follows: (library stock concentration: 4.5 mM) 7.66 ± 0.58%; under setting [2], 23.1 ± 3.2%. Consider `CO/N=C(\C(=O)N[C@@H]1C(=O)N2C(C(=O)O)=C(COC(N)=O)CS[C@H]12)c1ccco1` [Cefuroxime], for which, under setting [2], the “percent Bodipy-positive cells” value was found to be 32.5 ± 1.4%. Turning to `CO/N=C(\C(=O)N[C@@H]1C(=O)N2C(C(=O)O)=C(COC(N)=O)CS[C@H]12)c1ccco1` [Cefuroxime sodium salt], the “percent Bodipy-positive cells” value amounted to 9.33 ± 4.2%.

As to `CN1CCN(CCOc2cc(OC3CCOCC3)c3c(Nc4c(Cl)ccc5c4OCO5)ncnc3c2)CC1`, the “percent Bodipy-positive cells” value came out at 24 ± 2.9% under setting [3], 38.7 ± 16% under setting [4], 56.1 ± 15% under setting [5] and 81.7 ± 13% under setting [2].

As for `CN1CCN(CCOc2cc(OC3CCOCC3)c3c(Nc4c(Cl)ccc5c4OCO5)ncnc3c2)CC1` [Saracatinib (AZD0530)], the “percent Bodipy-positive cells” value by setting is: under setting [1], 63.819 ± 0.037%; under setting [2], 77 ± 2.4%.
